Here are results for four molecules from article PMC4026536.

In experiment [1] the target is T1, GST-tagged PKD3 (protein kinase D3) (human) (UniProt O94806).
T1 sequence: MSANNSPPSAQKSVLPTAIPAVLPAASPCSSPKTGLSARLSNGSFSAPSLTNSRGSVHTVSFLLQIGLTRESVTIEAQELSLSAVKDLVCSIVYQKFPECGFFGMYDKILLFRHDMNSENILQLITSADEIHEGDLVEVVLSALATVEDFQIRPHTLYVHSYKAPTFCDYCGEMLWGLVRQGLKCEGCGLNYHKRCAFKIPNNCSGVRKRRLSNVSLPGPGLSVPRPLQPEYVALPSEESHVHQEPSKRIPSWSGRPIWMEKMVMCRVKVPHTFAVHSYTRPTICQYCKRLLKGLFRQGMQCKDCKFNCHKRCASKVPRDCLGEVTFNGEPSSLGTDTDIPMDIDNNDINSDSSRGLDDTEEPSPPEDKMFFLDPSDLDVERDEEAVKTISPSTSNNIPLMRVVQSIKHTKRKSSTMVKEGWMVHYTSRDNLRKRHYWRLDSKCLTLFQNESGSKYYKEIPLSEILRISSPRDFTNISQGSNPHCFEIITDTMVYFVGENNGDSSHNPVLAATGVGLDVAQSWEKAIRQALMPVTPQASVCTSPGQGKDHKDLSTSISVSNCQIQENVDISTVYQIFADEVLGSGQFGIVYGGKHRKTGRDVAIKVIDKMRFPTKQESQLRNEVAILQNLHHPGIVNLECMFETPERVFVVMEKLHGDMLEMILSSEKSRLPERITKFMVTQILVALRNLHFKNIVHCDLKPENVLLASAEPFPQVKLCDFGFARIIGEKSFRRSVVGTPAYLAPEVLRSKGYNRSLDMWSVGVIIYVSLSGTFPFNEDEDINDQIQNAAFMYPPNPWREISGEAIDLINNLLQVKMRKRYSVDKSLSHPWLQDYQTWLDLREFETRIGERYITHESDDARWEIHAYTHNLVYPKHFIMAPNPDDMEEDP
In words: co-IP; reverse orientation of the overexpressed pair (PKD3 precipitated, PKD2 detected); data not shown.

The target in experiment [2] is T2, endogenous PKD3 (protein kinase D3) (human (endogenous in HeLa and MDA-MB-468)) (UniProt O94806).
T2 sequence: T1 sequence
Kind of experiment: co-IP; endogenous proteins from HeLa or MDA-MB-468 lysates under normal growth conditions; immunoprecipitation with subtype-specific anti-PKD2 or anti-PKD3 antibody, blot for the other isoform.

In experiment [3] the target is T3, FLAG-tagged PKD2 (protein kinase D2) (human) (UniProt Q9BZL6).
T3 sequence: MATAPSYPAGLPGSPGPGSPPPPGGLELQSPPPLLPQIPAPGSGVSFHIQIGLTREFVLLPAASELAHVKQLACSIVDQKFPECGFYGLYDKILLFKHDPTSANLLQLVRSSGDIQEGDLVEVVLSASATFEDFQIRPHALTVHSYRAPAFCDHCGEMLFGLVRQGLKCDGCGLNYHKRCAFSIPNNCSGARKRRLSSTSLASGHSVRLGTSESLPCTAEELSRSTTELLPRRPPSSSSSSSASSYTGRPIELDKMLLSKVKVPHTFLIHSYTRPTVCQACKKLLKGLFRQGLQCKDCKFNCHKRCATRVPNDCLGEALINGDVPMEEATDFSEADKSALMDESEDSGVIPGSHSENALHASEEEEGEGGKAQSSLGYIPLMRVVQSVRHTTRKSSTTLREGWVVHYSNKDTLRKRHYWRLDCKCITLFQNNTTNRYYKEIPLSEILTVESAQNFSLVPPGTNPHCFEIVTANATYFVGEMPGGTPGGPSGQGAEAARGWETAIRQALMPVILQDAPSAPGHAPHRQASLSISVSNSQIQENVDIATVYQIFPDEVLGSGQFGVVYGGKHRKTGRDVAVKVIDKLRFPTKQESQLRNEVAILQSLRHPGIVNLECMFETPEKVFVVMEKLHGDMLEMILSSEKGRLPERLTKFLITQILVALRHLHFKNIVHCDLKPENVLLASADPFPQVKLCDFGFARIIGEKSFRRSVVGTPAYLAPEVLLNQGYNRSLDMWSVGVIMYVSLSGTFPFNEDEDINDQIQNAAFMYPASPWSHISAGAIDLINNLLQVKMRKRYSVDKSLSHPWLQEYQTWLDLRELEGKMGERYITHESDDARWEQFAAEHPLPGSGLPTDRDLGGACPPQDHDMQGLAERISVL
In words: co-IP; HeLa cells co-transfected with FLAG-PKD2, GST-PKD3 and, in Fig. 4A, GST-RhoA.CA; lysis in 50 mM Tris-HCl pH 7.4, 1% Triton X-100, 150 mM NaCl, 5 mM EDTA; anti-FLAG immunoprecipitation of PKD2, protein G-Sepharose, blot with anti-GST.

The target in experiment [4] is T4, endogenous PKD2 (protein kinase D2) (human (endogenous in HeLa and MDA-MB-468)) (UniProt Q9BZL6).
T4 sequence: T3 sequence
Kind of experiment: co-IP; endogenous proteins from HeLa or MDA-MB-468 lysates under normal growth conditions; immunoprecipitation with subtype-specific anti-PKD2 or anti-PKD3 antibody, blot for the other isoform.

No constants are given. Whether binding was seen depends on the method and setting. Binding seen in cells or lysates may run through a third protein. Some binding calls cover weakened binding; strength is not graded here. For some of these results: Where a sequence is shown, tags or fusion partners need not be part of it.

B1: FLAG-tagged PKD2 (protein kinase D2) (enzyme, UniProt Q9BZL6 1-878)
chain: T3 sequence
On to B1, for which the binding result in experiment [1] was “binds”.

B2: endogenous PKD2 (protein kinase D2) (enzyme, UniProt Q9BZL6 1-878)
chain: T3 sequence
With B2, in experiment [2], the binding entry is given as “binds”.

B3: GST-tagged PKD3 (protein kinase D3) (enzyme, UniProt O94806 1-890)
chain: T1 sequence
As for B3, the binding result in experiment [3] is “binds”.

B4: endogenous PKD3 (protein kinase D3) (enzyme, UniProt O94806 1-890)
chain: T1 sequence
On to B4, for which the binding entry in experiment [4] is on record as “binds”.
